Measurements reported in PubChem BioAssay AID1159584 (Peter MacCallum Cancer Centre, 2016).
The whole screen tested about 18,000 reagents; this is an unselected part. Further read-outs or replicates are left out here. Not given: the amount of reagent, the time to read-out.

Purpose: 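Genes whose loss is lethal only together with E-cadherin loss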 (primary screen)
Cell system: human MCF10A breast epithelial cells, parental and CDH1-null
Reagent: siRNA against human genes
Measurement: 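ATP luminescence (CellTiter-Glo) viability per line relative to mean mock wells over all plates, and the ratio of CDH1-null to parental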
Direction: CDH1-null / parental viability ratio: higher = CDH1-null cells survive relatively better than parental

no.	gene symbol	PubChem SID	CDH1-null / parental viability ratio
1	EPB41L1 (erythrocyte membrane protein band 4.1 like 1)	SID134322859	1.01
2	MBNL3 (muscleblind like splicing regulator 3)	SID134319418	1.51
3	DTX2 (deltex E3 ubiquitin ligase 2)	SID152155395	0.65
4	MROH7 (maestro heat like repeat family member 7)	SID135624668	1.15
5	FNDC8 (fibronectin type III domain containing 8)	SID152148290	1.15
6	SLAMF6 (SLAM family member 6)	SID134317648	0.96
7	FYB2 (FYN binding protein 2)	SID152149525	0.82
8	CTTN (cortactin)	SID134315008	0.94
9	PRPF4 (pre-mRNA splicing tri-snRNP complex factor PRPF4)	SID134319668	1.45
10	LRFN4	SID134320296	1.27
11	ZNF224 (zinc finger protein 224)	SID135621223	0.56
12	LINC03122 (long independently transcribed non-coding RNA 3122)	SID134321993	0.79
13	FZD3 (frizzled class receptor 3)	SID134310945	1.33
14	CDK16 (cyclin dependent kinase 16)	SID152150805	0.93
15	USP3 (ubiquitin specific peptidase 3)	SID152156032	1.2
16	APEX1 (apurinic/apyrimidinic endodeoxyribonuclease 1)	SID134314833	0.86
17	BTNL9 (butyrophilin like 9)	SID152153420	0.84
18	PKNOX1 (PBX/knotted 1 homeobox 1)	SID134324996	0.76
19	OR5K3 (olfactory receptor family 5 subfamily K member 3)	SID134329948	1.01
20	SMC2 (structural maintenance of chromosomes 2)	SID152153976	1.22
21	DLL1 (delta like canonical Notch ligand 1)	SID152155535	0.85
22	PTPRN2 (protein tyrosine phosphatase receptor type N2)	SID134313001	1.18
23	XKR8 (XK related 8)	SID135623009	1.11
24	WNT3 (Wnt family member 3)	SID134314436	0.99
25	ACAD11 (acyl-CoA dehydrogenase family member 11)	SID135621509	1.17
26	CFHR3 (complement factor H related 3)	SID152150932	0.9
27	DRC9 (dynein regulatory complex subunit 9)	SID134318913	0.69
28	GAGE12I (G antigen 12I)	SID134315628	0.88
29	NEURL4 (neuralized E3 ubiquitin protein ligase 4)	SID135625206	1.37
30	MAGEE1 (MAGE family member E1)	SID135622688	1.06
31	DAB2 (DAB adaptor protein 2)	SID152148574	1.16
32	RTN3 (reticulon 3)	SID134323827	1.13
33	ZSWIM7 (zinc finger SWIM-type containing 7)	SID135625686	0.72
34	IRX5 (iroquois homeobox 5)	SID152154313	1.21
35	CPLANE2 (ciliogenesis and planar polarity effector complex subunit 2)	SID135622794	0.82
36	NOS3 (nitric oxide synthase 3)	SID134311822	1.04
37	LDAH (lipid droplet associated hydrolase)	SID152147653	1.04
38	PRDX6 (peroxiredoxin 6)	SID135623693	0.85
39	ANXA6 (annexin A6)	SID135622076	0.92
40	BLOC1S3 (biogenesis of lysosomal organelles complex 1 subunit 3)	SID152154654	0.82
41	SLC41A3	SID135621353	1.44
42	TOP1MT (DNA topoisomerase I mitochondrial)	SID135621707	0.84
43	PPP1R3F (protein phosphatase 1 regulatory subunit 3F)	SID152154714	0.88
44	SHTN1 (shootin 1)	SID135623098	0.75
45	OR2J3 (olfactory receptor family 2 subfamily J member 3)	SID134329879	1.14
46	DRG2 (developmentally regulated GTP binding protein 2)	SID134315607	1.05

Copied from above, 5 entries:
no.	gene symbol	PubChem SID	CDH1-null / parental viability ratio
4	MROH7 (maestro heat like repeat family member 7)	SID135624668	1.15
5	FNDC8 (fibronectin type III domain containing 8)	SID152148290	1.15
6	SLAMF6 (SLAM family member 6)	SID134317648	0.96
7	FYB2 (FYN binding protein 2)	SID152149525	0.82
8	CTTN (cortactin)	SID134315008	0.94
